The results in this text go back to doi:10.1101/2021.10.01.462782.

The chains behind the UniProt entries cited, without tags or fusion partners. Where a name states a change or a piece, a line headed by the entry shows the natural chain unless it says otherwise.
UniProt Q9SJF3: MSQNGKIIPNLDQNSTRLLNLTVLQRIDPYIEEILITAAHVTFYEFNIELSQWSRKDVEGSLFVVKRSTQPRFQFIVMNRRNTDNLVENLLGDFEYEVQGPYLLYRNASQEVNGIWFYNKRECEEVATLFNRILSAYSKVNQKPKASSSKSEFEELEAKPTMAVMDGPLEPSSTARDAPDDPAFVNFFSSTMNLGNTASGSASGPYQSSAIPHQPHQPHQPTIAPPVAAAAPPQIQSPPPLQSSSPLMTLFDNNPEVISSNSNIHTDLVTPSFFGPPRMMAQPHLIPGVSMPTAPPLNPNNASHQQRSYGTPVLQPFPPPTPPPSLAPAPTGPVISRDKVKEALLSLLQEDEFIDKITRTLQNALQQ
UniProt Q9M2F9: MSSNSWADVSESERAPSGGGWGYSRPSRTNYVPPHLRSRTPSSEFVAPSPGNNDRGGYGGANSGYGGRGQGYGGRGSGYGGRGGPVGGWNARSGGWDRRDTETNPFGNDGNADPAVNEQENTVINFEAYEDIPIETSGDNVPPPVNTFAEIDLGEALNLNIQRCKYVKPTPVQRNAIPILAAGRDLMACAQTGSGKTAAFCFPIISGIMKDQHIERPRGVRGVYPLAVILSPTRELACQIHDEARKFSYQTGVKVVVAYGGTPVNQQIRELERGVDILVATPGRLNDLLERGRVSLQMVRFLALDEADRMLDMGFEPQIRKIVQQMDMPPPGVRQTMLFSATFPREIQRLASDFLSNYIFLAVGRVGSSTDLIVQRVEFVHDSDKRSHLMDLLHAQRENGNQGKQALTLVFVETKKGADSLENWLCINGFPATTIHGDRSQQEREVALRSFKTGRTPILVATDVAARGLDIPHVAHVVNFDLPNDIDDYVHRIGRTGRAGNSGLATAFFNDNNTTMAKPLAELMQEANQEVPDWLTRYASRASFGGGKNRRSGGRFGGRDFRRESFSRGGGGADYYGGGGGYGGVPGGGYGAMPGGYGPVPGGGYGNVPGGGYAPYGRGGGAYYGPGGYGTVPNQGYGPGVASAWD

Holding throughout (test): affinity purification with mass spectrometry
In experiment [1] the target is T1, GFP-DCP2 (Arabidopsis thaliana) (UniProt Q8GW31).
T1 sequence: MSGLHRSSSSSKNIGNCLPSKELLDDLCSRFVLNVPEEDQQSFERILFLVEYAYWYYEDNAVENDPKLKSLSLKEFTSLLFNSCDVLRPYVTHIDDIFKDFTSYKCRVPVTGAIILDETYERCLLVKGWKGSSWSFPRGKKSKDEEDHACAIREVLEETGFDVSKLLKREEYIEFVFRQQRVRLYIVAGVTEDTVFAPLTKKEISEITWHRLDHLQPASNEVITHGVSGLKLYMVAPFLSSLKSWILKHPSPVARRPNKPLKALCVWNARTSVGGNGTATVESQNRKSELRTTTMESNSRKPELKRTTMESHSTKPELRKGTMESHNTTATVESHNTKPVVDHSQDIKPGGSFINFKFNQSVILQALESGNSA

Experiment [2] deals with T1, GFP-DCP2 (Arabidopsis thaliana). This is another data set of the same source.
In experiment [3] the target is YFP-DCP1 (Arabidopsis thaliana) (UniProt Q9SJF3).
The target of experiment [4] is GFP-DNE1 (Arabidopsis thaliana).
Experiment [5] shares this target. The source holds these as a separate data set.

Read-outs that look alike come from different tables or passages of the source. These are yes or no findings as the source states them, for the method shown. Binding seen in cells or lysates may run through a third protein. Here binding means that the protein was enriched with, or labelled near, the bait; the list need not be complete. For some of these results: A no says only that the protein was not detected with the bait. For some of these results: Where a sequence is shown, tags or fusion partners need not be part of it.

Regarding “DCP1-ASSOCIATED NYN ENDORIBONUCLEASE 1 (DNE1)”, the binding entry in experiment [1] and in experiment [2] was “no binding” in each case.

Consider RH52 (from UniProt Q9M2F9 1-646), for which the binding result in experiment [3] was “binds”.

B1: RH12 (protein, UniProt Q9M2E0 1-498)
chain: MNTNRGRYPPGVGTGRGAPPNPDYHQSYRQQQPPQDQQYVQRGYSQNPQQMQLQQQHQQQQQQQQWSRRPQLPGNASNANEVVQQTTQPEASSDANGQDWKATLRLPPPDTRYQTADVTATKGNEFEDYFLKRDLLKGIYEKGFEKPSPIQEESIPIALTGSDILARAKNGTGKTGAFCIPVLEKIDPNNNVIQAMILVPTRELALQTSQVCKELSKYLNIQVMVTTGGTSLRDDIMRLHQPVHLLVGTPGRILDLTKKGVCVLKDCAMLVMDEADKLLSAEFQPSLEELIQFLPQNRQFLMFSATFPVTVKAFKDRHLRKPYVINLMDQLTLMGVTQYYAFVEERQKVHCLNTLFSKLQINQSIIFCNSVNRVELLAKKITELGYSCFYIHAKMVQDHRNRVFHEFRNGACRNLVCTDLFTRGIDIQAVNVVINFDFPRTSESYLHRVGRSGRFGHLGLAVNLVTYEDRFKMYQTEQELGTEIKPIPSNIDQAIYCQ
Take B1: the binding entry in experiment [2] and in experiment [3] was “binds” throughout.

B2: PAT1 (protein, UniProt Q0WPK4 1-793)
chain: MDAFGIGSSLNQAPVTQDLKKFGDNSTGNTMFDASQYAFFGNDVVEEVELGGLEEEDEILSFTGIAEDFSFDKEEVGDSRLLSDVDDLASTFSKLNREPDVYSNTGPITDRRSSQNSLAAEWTHGEELPNWYGRQILDSDAIKDDKVWSAQPFSSLDRVEQRIPDRTKLYPEPQRQLHQDHNQQQFSSEPILVPKSSFVSYPPPGSISPDQRLGHPNIPYQSGGPQMGSPNFSPFPNLQPQLPSMHHGSPQHTGNRPQFRPALPLNNLPPAQWMNRQNMHPGDSSGIMNNAMLQQPPHQNGLMPPQMQGSQNRLPHPMQPPLGHMPGMQPQLFNSHLSRSSSSGNYDGMLGFGDLREVRPGSGHGNRQNVRFPQQGFDAGVQRRYPFRSKYMSAGEIENILRMQLVATHSNDPYVDDYYHQACLAKKSAGAKLKHHFCPNHLRDLQQRARSNNEPHAFLQVEALGRVPFSSIRRPRPLLEVDPPNSAKFGNAEHKPTDKPLDQEPMLAARVYIEDGLCLLLEVDDIDRFLEFNQLQDGGHQLKQRRQALLQSLAVSLQLGDPLAKNGQSQSLDDFLFLRVISLPKGRKLLIRYLQLIFPGSDLMRIVCMAIFRHLRSLFGVLSSDPDIIKTTNKLATVINLCIQNMELGPVSTCLAAVSCSSEQAPLRPLGSPVGDGASTVLKSILDRASELIRANNFNNAGIALWRASFNEFFNMLMRYCISKYDSIMQSLQLPPHFATEISEEAAKAIVREMPIELLRSSFPHIDEQQKRILMEFLKRSMLGSQKTEPVLS
Turning to B2, in experiment [2], the binding entry is “binds”.

B3: RH8 (protein, UniProt Q8RXK6 1-505)
chain: MNNRGRYPPGIGAGRGAFNPNPNYQSRSGYQQHPPPQYVQRGNYAQNHQQQFQQAPSQPHQYQQQQQQQQQWLRRGQIPGGNSNGDAVVEVEKTVQSEVIDPNSEDWKARLKLPAPDTRYRTEDVTATKGNEFEDYFLKRELLMGIYEKGFERPSPIQEESIPIALTGRDILARAKNGTGKTAAFCIPVLEKIDQDNNVIQAVIIVPTRELALQTSQVCKELGKHLKIQVMVTTGGTSLKDDIMRLYQPVHLLVGTPGRILDLTKKGVCVLKDCSVLVMDEADKLLSQEFQPSVEHLISFLPESRQILMFSATFPVTVKDFKDRFLTNPYVINLMDELTLKGITQFYAFVEERQKIHCLNTLFSKLQINQSIIFCNSVNRVELLAKKITELGYSCFYIHAKMLQDHRNRVFHDFRNGACRNLVCTDLFTRGIDIQAVNVVINFDFPKNAETYLHRVGRSGRFGHLGLAVNLITYEDRFNLYRIEQELGTEIKQIPPHIDQAIYCQ
For the molecule B3, the binding result in experiment [2] and in experiment [3] was “binds” in each case.

B4: RH6 (protein, UniProt Q94BV4 1-528)
chain: MNNNNNNRGRFPPGIGAAGPGPDPNFQSRNPNPPQPQQYLQSRTPFPQQPQPQPPQYLQSQSDAQQYVQRGYPQQIQQQQQLQQQQQQQQQQQEQQWSRRAQLPGDPSYIDEVEKTVQSEAISDSNNEDWKATLKLPPRDNRYQTEDVTATKGNEFEDYFLKRDLLRGIYEKGFEKPSPIQEESIPIALTGSDILARAKNGTGKTGAFCIPTLEKIDPENNVIQAVILVPTRELALQTSQVCKELSKYLKIEVMVTTGGTSLRDDIMRLYQPVHLLVGTPGRILDLAKKGVCVLKDCAMLVMDEADKLLSVEFQPSIEELIQFLPESRQILMFSATFPVTVKSFKDRYLKKPYIINLMDQLTLMGVTQYYAFVEERQKVHCLNTLFSKLQINQSIIFCNSVNRVELLAKKITELGYSCFYIHAKMVQDHRNRVFHDFRNGACRNLVCTDLFTRGIDIQAVNVVINFDFPRTSESYLHRVGRSGRFGHLGLAVNLVTYEDRFKMYQTEQELGTEIKPIPSLIDKAIYCQ
Turning to B4, the binding result in experiment [2] and in experiment [3] was “binds” throughout.

B5: VARICOSE (VCS) (protein, UniProt Q9LTT8 1-1344)
chain: MASSPGNTNPHNTPPFDLGILFKPSSNPYPPPAASYPPPTGPFLHNQYDQQHYAPPGISAQPSPVTQQQQDVSSSSAATNLHPQRTLSYPTPPLNLQSPRSNHNPGTHILALLNNTNNGAPVANQEPSHQLPVVNHNEIARSFPGGSGPIRVPSCKLPKGRRLIGEHAVYDVDVRLQGEIQPQLEVTPITKYGSDPQLVVGRQIAVNKVYICYGLKGGNIRVLNINTALRSLFRGHSQRVTDMAFFAEDVDMLASVSLDGKVFVWKISEGSEGEDQPQITGKIVLALQILGEEDTKHPRVCWHCHKQEILVVSIGKHVLRIDTTKVGRGEVFSAEAPLQCPLDKLIDGVQIVGKHDGEVTDLSMCQWMTTRLVSSSVDGTIKIWQDRKAQPLVVLRPHDGHPVSSATFVTSPERPDHIILITGGPLNREMKIWVSAGEEGWLLPADAESWRCTQTLDLKSSTEPRAEEAFFNQVIALSEAGLLLLANAKRNALYAVHLDYGSSPVGTRMDYLSEFTVTMPILSFIGTNDPPEEPIVKVYCVQTLAIQQYTLDLCLCLPPPIENMGLEKSDSSVSREANLVEGMSEPSGLKPTDLPSVDSVPKPSIIVNRSESANKLSFPSAEATSQAIVPPNGEPKTSGLPSQTSGAGSAYATLPQLPLSPRLSSKLSGYHTPVEAIEPVIPHHELGGKTPSADYSVDRQMDAVGERNLDVSSVEEISRSKDSNVTPDDDVSGMRSPSAFFKHPTHLVTPSEILMGVSSAEASITTEDRRDRDANIQDVNNDPRDTEVEVKEISEARSTQNGEINDHDETENCTSENREKVFCSQVSNLSTEMARDCYPSTEGTFIPGESKAYGQPIKAGDESGVDSRGGPAKLLKGKKQKAKNSQGPGLSSTSSNVANLADSFNEQSQSLSHPMTDLLPQLLAMQETMNQVMASQKEMQRQLSNAATGPIGKESKRLEVALGRMIEKSSKSNADALWARIQEETVKNEKALRDHAQQIVNATTNFMSKELNAMFEKTIKKELAAIGPALARSVVPVIEKTVSSAITESFQRGIGDKAVNQLDKSVNIKLEATVARQIQAQFQTSGKQALQEGLRSSVESSVIPSFEKACKAMFDQIDSAFQKGIAEHTNAAQQRFDSGHSQLAHTLKESITSASSVAQALSRELAETQRNLLALAAAGANSGGSNSLVTQLSGGPLGALLEKVEAPMDPTTELSRLISERKYEESFTSALQRSDVSIVSWLCSQVDLRGLLAMNPLPLSQGVLLSLLQQLACDISKDTSRKLAWMTDVVAAINPSDQMIAVHARPIFEQVYQILHHHRNAPGSDVSAIRLIMHVINSMLMGCK
Regarding B5, the binding entry in experiment [4], in experiment [2] and in experiment [3] was “binds” in each case.

B6: UPF1 (protein, UniProt Q9FJR0 1-1254)
chain: MDSQQSDLFDTASQPDTVADEYTFLEFNTQGDSEFDYQDFGSPTAWPTPSDSISIADVADRGEGGAAADHHSEASSPSSLSAGAGNGAKVGRGGVGGSGGVSSSSQVDALAAGVGNLNFEETGDDDGFDYGKNDFTEHACKYCGISNPACVVRCNVASCRKWFCNSRGNTSGSHIVNHLVRAKHKEVCLHRDSPLGETILECYNCGCRNVFLLGFISAKTDSVVVLLCRDPCLNVNALKDMNWDLSQWCPLIDDRCFLPWLVKVPSEQEQLRARQISAQQINKIEELWKTNPDATLEDLEKPGVDDEPQPVQPKYEDAYQYQNVFAPLIKLEADYDKMMKESQSKENLTVRWDIGLNKKRVAYFVFPKEENELRLVPGDELRLRYSGDAVHPSWQSVGHVIKLTAQEEVALELRANQGVPIDVNHGFSVDFVWKSTSFDRMQGAMKNFAVDETSVSGYIYHQLLGHEVEAQMVRNTLPRRFGVPGLPELNASQVNAVKSVLQKPISLIQGPPGTGKTVTSAAIVYHMAKQGQGQVLVCAPSNVAVDQLAEKISATGLKVVRLCAKSREAVSSPVEYLTLHYQVRHLDTSEKSELHKLQQLKDEQGELSSSDEKKYKNLKRATEREITQSADVICCTCVGAADLRLSNFRFRQVLIDESTQATEPECLIPLVLGVKQVVLVGDHCQLGPVIMCKKAARAGLAQSLFERLVTLGIKPIRLQVQYRMHPALSEFPSNSFYEGTLQNGVTIIERQTTGIDFPWPVPNRPMFFYVQLGQEEISASGTSYLNRTEAANVEKLVTAFLKSGVVPSQIGVITPYEGQRAYIVNYMARNGSLRQQLYKEIEVASVDSFQGREKDYIILSCVRSNEHQGIGFLNDPRRLNVALTRARYGIVILGNPKVLSKQPLWNGLLTHYKEHECLVEGPLNNLKQSMVQFQKPRKIYNDRRLFYGGGAGMIGNDNFGSGNPNADRRGSRGRAGGSYLPSGPPNGARPGLHPAGYPIPRVPLSPFPGGPPSQPYAIPTRGPVGAVPHAPQPGNHGFGAGRGTSVGGHLPHQQATQHNVGTIGPSLNFPLDSPNSQPSPGGPLSQPGYGSQAFRDGFSMGGISQDFLADDIKSQGSHDPYNMADFATQASPGGFAVDYATQGAHGAFPGNFMNQNSQGGYSRFSGINDFMSQEYMAHGGQGLFTQAGFIDSSQDDGQQNPYGVNNPNLQSQGLPNSLYSQPFAHYNTQPLNLSGPQQSQPNQSSQNPKHPYNG
On to B6, for which the binding entry in experiment [5], in experiment [4] and in experiment [2] was “binds” each time.
